Laboratory results: PubChem BioAssay AID686943 (Drosophila RNAi Screening Center, 2013)
In all, the deposit lists about 23,000 reagents; below is a random part of those with a known target gene and a result. 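Extra replicates exist only for a retested subset of genes; insulin dose and duration not given; both raised and lowered dpERK matter.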 The numbers tell different reagents against one gene apart. A plus sign joins genes that one reagent is predicted to hit. Not all columns of the deposit are shown. Not given: the amount of reagent, the time to read-out.

Assay: 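Fly genes whose loss alters ERK activation after insulin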 (primary screen)
Cell system: Drosophila S2R+ haemocyte-like cells expressing YFP-tagged ERK (Rolled)
Reagent: long dsRNA against Drosophila genes
Treatment: insulin stimulation versus unstimulated cells; dose and duration not given
Measured: 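Per-plate z-scores of phospho-ERK immunostaining normalised to YFP-tagged ERK, measured with and without insulin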
Scale: replicate 1, z-score of dpERK with insulin and replicate 2, z-score of dpERK with insulin: higher = more active ERK per ERK-YFP after insulin; replicate 1, z-score of dpERK under basal conditions: higher = more basal active ERK per ERK-YFP

Gene	reagent no.	replicate 1, z-score of dpERK with insulin	replicate 2, z-score of dpERK with insulin	replicate 1, z-score of dpERK under basal conditions
Alp2 (GeneID 37539)	1	-2.72	0.19	0.69
EDTP (GeneID 36959)	1	0.69	0.93	0.78
Jra (GeneID 36057)	1	2.46	1.52	3.95
mRpS25 (GeneID 32395)	1	-0.28	0.23	0.33
Eig71Ea (GeneID 39700)	1	0.67	0.97	0.32
Sodq (GeneID 43133)	1	-0.43	-0.12	0.29
CG42758 (GeneID 10178900)	1	-0.68	0.62	0.37
CG32694 (GeneID 31933)	1	-0.22	-0.05	0.33
CG32694 (GeneID 31933)	2	-1.04	0.13	-1.03
CG32694 (GeneID 31933)	3	-0.93	0.5	0.18
CG14053 (GeneID 31197)	1	-0.91	-0.06	1.53
CG5641 (GeneID 41529)	1	-0.54	-0.14	-0.46
CAH1 + Adat1	1	-0.19	-0.51	0.68
CG2924 (GeneID 31214)	1	0.63	-0.24	0.37
CG8010 (GeneID 32921)	1	0.86	0.66	-0.38
knk (GeneID 47137)	1	0.33	0.19	0.31
HLH3B (GeneID 31249)	1	0.33	-0.12	0.6
TpnC73F (GeneID 39916)	1	0.09	0.3	0.56
RpL37-1 (GeneID 32446)	1	1.04	-0.88	0.25
RpL37-1 (GeneID 32446)	2	-1.04	-1.42	3.73
Saf-B (GeneID 42958)	1	4.26	2.39	3.93
ND-B14 (GeneID 36159)	1	-1.07	0.48	-0.15
CG12017 (GeneID 38404)	1	-0.23	-0.14	-1.19
CG11291 (GeneID 37541)	1	0.86	-0.05	-0.22
CG10638 (GeneID 39424)	1	0.9	0.32	2.39
mbm (GeneID 33194)	1	-0.28	-0.03	0.54
Jon99Ci (GeneID 43545)	1	0.57	0	0.13
CG3632 (GeneID 32589)	1	-0.46	-0.47	0.23
CG3632 (GeneID 32589)	2	-0.42	-0.11	0.33
Pat1 (GeneID 31593)	1	0.14	0.51	0.92
CG32652 (retired record) (GeneID 318141)	1	1.73	-0.02	-0.11
CG32652 (retired record) (GeneID 318141)	2	-2.73	0.27	-0.47
CG12784 (GeneID 41903)	1	-0.57	1.53	0.31
CG4502 (GeneID 34002)	1	-1.09	-0.68	0.05
CG12539 (GeneID 32412)	1	0.22	1.17	-0.27
Lcp65Ae (GeneID 45018)	1	-0.58	-0.94	0.3
Sf3b3 (GeneID 38093)	1	2.94	1.04	-0.99
CG43897 (GeneID 39153)	1	-1.56	-1.19	-0.32
CG43897 (GeneID 39153)	2	-2.11	0.83	-1.63
CG43897 (GeneID 39153)	3	1.25	0.09	-0.26
CG43897 (GeneID 39153)	4	-1.79	-2.22	-1.82
Srr (GeneID 41117)	1	1.21	0.28	1.5
CG11594 (GeneID 38473)	1	-0.23	-1.25	0.24
Pig1 (GeneID 31303)	1	-0.98	-3.53	-0.48
hep (GeneID 32256)	1	1.21	1.25	0.72
hep (GeneID 32256)	2	0.2	0.26	0.61
CG4631 (GeneID 34988)	1	0.33	-0.07	1.38
CG4631 (GeneID 34988)	2	0.2	1.22	-0.63
Lamp1 (GeneID 35411)	1	0.51	0.39	-0.96
DCP2 (GeneID 39722)	1	0.17	-0.15	1.08
DCP2 (GeneID 39722)	2	0.17	-0.41	-0.8
ccb (GeneID 33096)	1	-0.41	-0.07	3.55
CG3008 (GeneID 33693)	1	-0.11	0.2	2.32
CG13898 (GeneID 38092)	1	0.24	0.57	-0.13
CG42720 (retired record) (GeneID 10178794)	1	0.45	0.85	-0.08
CG14913 (GeneID 34532)	1	1.35	0.55	1.85
kto (GeneID 44830)	1	1.62	1.4	-0.56
CG34150 (GeneID 4379863)	1	0.52	-0.29	-0.34
CG6321 (GeneID 39233)	1	0	0.73	0.03
Trmt112 (GeneID 40343)	1	0.69	-0.08	-0.6
CG6739 (GeneID 34037)	1	0.56	0.92	-1.16
Tet (GeneID 38347)	1	0.8	-0.17	2.35
Tet (GeneID 38347)	2	-2.39	-1.35	0.09
Tet (GeneID 38347)	3	0.54	1.94	0.53
GLS (GeneID 36396)	1	-0.01	-0.3	-0.23
CG9297 (GeneID 41688)	1	1.17	0.43	1.87
CG8349 (GeneID 34124)	1	-0.48	0.42	0.37
mRpL12 (GeneID 44326)	1	0.92	0.34	1.14
CG7084 (GeneID 42606)	1	-0.19	0.68	-0.73
Fkbp59 (GeneID 47762)	1	-1.15	-1.02	-0.67
CG12688 (retired record) (GeneID 31378)	1	1.26	-0.73	0.93
CG12688 (retired record) (GeneID 31378)	2	0.08	-0.66	-0.23
Him (GeneID 32801)	1	-0.07	-0.6	-0.43
